Data published in the supplement of paper PMC12819154, “High-throughput peptide-centric local stability assay extends protein–ligand identification to membrane proteins, tissues and bacteria” (Nature Structural & Molecular Biology, 2025).
The other results are listed elsewhere or left out. Most entries show no effect beyond the scatter of the controls.

By UniProt entry, the sequences of proteins in these tests, tags left out. Where a name states a change or a piece, a line headed by the entry shows the natural chain unless it says otherwise.
UniProt O60356: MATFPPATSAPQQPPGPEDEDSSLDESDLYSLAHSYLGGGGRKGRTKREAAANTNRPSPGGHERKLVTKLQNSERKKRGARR
UniProt O43151: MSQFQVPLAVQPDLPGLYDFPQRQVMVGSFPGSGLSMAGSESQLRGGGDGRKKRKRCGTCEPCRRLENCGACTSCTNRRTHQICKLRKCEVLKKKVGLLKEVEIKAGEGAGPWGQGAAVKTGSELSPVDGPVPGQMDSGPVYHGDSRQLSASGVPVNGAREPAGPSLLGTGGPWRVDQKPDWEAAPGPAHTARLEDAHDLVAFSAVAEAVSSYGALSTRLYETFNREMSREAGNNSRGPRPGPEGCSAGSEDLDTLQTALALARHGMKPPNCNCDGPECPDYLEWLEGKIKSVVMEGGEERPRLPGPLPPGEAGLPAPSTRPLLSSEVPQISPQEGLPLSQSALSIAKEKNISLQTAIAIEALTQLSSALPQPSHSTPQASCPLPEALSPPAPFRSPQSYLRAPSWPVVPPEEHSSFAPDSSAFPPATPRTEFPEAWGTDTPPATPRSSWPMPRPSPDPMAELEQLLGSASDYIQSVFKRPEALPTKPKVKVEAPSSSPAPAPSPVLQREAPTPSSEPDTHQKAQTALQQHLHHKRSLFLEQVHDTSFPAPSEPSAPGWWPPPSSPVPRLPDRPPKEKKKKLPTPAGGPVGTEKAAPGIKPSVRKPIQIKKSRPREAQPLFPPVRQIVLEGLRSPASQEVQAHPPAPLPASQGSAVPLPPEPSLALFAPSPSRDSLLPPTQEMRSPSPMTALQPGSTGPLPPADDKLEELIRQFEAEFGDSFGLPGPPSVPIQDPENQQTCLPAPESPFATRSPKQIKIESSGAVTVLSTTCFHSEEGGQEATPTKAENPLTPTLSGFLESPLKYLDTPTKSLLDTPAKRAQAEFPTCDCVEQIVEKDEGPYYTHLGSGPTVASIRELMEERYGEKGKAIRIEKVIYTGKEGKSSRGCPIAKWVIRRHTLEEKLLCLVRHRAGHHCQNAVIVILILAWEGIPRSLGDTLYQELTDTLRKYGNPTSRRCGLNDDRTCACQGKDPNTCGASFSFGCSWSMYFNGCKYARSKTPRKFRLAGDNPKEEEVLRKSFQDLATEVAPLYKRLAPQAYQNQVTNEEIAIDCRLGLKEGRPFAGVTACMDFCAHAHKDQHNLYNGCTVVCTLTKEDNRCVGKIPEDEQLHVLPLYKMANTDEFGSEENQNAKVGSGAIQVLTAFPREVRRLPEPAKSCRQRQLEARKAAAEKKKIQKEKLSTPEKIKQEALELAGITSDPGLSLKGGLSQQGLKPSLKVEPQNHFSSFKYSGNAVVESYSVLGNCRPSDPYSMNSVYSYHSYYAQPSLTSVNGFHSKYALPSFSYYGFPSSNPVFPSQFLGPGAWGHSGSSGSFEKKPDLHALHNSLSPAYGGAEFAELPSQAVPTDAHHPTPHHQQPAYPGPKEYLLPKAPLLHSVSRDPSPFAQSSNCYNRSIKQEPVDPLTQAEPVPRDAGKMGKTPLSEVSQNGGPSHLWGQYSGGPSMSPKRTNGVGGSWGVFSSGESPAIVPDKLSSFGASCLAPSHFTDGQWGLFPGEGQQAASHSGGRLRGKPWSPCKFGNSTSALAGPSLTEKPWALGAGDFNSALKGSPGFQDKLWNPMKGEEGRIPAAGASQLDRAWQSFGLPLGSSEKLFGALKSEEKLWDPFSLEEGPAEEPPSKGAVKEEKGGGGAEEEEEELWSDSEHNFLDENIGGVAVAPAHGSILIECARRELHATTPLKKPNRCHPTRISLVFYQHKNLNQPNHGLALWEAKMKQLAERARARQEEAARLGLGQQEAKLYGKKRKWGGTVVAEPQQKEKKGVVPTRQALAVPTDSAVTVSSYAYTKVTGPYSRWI
UniProt O43189: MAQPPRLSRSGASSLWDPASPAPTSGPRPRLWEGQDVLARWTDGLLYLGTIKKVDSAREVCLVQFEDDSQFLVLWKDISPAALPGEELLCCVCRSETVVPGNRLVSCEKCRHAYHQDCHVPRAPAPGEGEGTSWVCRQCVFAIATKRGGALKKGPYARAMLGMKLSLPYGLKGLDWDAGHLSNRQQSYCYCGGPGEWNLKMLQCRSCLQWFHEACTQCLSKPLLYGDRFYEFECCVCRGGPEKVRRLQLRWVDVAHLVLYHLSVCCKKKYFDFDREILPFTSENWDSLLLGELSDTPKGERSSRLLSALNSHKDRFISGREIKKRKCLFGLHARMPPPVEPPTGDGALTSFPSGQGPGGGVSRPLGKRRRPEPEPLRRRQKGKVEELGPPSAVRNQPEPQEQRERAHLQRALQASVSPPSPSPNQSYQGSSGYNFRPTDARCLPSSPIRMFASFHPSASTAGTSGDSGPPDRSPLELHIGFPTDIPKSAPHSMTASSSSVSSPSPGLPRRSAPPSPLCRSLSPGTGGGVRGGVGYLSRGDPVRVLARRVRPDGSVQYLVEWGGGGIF
UniProt O60825: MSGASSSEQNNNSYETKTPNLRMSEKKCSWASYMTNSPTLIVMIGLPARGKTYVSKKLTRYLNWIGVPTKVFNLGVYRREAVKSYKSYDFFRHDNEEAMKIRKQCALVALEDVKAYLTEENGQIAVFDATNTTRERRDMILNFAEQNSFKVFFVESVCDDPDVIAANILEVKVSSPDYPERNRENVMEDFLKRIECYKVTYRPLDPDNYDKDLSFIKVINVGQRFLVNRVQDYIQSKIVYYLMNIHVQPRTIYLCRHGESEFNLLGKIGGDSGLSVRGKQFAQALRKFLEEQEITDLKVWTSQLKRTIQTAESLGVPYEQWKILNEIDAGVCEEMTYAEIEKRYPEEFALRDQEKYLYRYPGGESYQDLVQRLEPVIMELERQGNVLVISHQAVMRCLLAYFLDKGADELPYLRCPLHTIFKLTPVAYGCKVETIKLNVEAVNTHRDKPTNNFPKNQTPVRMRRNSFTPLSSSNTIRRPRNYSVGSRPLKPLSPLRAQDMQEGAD
UniProt O43900: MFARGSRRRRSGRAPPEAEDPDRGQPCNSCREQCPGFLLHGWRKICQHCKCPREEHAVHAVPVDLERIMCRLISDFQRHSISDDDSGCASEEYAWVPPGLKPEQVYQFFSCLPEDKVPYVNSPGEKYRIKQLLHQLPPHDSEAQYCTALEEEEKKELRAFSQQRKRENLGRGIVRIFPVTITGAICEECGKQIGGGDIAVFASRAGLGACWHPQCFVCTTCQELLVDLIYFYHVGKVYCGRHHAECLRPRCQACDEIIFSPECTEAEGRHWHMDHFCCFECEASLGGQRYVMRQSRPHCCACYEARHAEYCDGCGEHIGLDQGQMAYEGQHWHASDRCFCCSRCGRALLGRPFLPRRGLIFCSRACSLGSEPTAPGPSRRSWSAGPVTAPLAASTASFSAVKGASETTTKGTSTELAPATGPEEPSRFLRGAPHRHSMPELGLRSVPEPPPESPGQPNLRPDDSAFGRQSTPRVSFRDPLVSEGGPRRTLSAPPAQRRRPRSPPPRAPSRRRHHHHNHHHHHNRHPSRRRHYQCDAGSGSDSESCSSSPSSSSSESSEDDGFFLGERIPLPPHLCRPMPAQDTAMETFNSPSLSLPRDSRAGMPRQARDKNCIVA
UniProt O43516: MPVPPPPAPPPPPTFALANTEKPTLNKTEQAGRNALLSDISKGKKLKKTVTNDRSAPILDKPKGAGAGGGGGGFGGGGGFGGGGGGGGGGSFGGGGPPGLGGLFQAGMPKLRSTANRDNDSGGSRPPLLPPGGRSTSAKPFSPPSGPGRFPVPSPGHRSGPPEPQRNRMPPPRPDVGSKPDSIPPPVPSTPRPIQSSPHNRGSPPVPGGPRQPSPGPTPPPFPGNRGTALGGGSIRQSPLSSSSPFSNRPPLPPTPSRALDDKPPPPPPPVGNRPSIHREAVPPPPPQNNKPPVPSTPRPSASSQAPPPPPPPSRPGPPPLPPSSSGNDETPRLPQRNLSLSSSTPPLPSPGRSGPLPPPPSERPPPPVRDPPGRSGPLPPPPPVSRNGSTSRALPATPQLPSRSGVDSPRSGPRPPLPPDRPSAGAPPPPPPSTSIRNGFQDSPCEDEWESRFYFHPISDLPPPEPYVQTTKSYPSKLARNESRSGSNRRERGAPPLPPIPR
UniProt O43324: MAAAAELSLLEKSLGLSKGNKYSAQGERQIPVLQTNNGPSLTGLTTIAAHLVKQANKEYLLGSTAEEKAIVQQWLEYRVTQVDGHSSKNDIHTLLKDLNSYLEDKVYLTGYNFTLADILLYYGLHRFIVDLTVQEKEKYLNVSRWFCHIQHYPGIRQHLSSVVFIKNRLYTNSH
UniProt O43716: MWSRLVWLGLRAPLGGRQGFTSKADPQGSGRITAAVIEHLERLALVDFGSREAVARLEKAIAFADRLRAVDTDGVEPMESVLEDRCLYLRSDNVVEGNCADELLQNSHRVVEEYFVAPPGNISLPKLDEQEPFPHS
UniProt O75319: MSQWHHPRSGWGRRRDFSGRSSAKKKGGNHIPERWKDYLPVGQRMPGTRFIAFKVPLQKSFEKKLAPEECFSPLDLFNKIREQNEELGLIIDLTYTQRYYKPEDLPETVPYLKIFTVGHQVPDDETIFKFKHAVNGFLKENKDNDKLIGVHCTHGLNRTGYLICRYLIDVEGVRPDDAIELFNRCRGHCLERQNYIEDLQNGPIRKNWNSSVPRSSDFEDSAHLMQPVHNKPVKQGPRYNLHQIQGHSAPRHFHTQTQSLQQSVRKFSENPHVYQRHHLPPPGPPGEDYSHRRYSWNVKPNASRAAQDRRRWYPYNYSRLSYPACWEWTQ
UniProt O60239: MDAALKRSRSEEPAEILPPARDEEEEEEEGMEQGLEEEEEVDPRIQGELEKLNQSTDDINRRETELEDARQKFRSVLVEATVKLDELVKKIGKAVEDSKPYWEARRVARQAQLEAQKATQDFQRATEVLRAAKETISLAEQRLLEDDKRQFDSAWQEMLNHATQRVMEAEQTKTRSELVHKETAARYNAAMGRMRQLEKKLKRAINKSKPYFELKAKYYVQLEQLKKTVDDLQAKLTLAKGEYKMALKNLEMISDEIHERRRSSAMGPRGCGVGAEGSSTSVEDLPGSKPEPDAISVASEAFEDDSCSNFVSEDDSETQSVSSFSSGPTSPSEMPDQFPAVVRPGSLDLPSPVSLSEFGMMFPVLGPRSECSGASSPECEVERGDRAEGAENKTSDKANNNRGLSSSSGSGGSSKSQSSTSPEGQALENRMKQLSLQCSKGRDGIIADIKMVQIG
UniProt O60547: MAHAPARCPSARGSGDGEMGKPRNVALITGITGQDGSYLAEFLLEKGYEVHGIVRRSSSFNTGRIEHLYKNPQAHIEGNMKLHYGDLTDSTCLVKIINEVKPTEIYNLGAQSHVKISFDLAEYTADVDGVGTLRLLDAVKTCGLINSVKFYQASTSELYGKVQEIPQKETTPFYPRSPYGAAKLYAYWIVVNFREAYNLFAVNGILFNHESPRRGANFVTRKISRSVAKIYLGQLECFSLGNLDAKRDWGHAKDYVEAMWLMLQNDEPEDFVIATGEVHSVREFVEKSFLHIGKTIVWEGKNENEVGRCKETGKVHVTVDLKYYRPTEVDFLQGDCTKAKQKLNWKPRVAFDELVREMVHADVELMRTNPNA
UniProt O75164: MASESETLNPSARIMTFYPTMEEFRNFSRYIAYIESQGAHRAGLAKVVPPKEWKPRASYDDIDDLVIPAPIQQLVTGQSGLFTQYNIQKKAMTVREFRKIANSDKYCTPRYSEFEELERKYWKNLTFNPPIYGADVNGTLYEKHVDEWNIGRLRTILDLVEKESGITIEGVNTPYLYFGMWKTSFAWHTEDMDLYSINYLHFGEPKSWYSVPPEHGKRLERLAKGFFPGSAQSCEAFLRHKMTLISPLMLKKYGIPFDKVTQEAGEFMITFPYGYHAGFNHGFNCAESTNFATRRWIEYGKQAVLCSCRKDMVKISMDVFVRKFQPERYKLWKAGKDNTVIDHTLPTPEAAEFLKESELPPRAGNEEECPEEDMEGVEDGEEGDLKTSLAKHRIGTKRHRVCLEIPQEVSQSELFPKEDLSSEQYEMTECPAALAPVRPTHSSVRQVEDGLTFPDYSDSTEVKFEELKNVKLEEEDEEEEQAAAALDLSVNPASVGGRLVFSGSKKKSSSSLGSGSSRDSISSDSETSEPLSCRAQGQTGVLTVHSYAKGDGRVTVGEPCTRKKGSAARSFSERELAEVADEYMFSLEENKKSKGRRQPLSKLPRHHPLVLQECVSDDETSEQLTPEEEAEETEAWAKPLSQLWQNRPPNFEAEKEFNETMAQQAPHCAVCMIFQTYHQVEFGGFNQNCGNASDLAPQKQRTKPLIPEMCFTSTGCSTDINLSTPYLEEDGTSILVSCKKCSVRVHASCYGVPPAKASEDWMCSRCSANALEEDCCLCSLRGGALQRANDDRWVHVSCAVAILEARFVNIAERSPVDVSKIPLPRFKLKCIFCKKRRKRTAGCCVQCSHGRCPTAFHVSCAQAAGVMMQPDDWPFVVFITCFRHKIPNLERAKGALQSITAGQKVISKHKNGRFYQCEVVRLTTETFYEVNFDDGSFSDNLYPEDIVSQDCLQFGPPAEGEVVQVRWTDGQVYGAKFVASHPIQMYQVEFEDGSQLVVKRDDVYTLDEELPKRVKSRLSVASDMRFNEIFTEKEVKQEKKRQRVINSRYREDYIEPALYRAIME

Compound: Cc1nc(Nc2ncc(C(=O)Nc3c(C)cccc3Cl)s2)cc(N2CCN(CCO)CC2)n1 [dasatinib]
Assay: log2 fold change of tryptic peptide abundance, ligand vs vehicle (limited proteolysis) (log2 ratio); higher = more trypsin-susceptible (destabilized)
Settings: ligand concentration: 5 uM; sample: K562 cleared lysate

Target	log2 fold change
UniProt O60356 (peptide sequence: EAAANTNRPSPGGHER, peptide start residue: 49)	-0.0752
UniProt O43829 (peptide sequence: EQIACQACGK, peptide start residue: 275)	0.216
H2AFY (peptide sequence: KGHPKYR, peptide start residue: 34) (UniProt O75367)	-0.364
UniProt O43151 (peptide sequence: GGLSQQGLKPSLK, peptide start residue: 1207)	0.442
UniProt O75123 (peptide sequence: SVDKGEHTGNL, peptide start residue: 526)	-0.807
UniProt O43189 (peptide sequence: LSLPYGLK, peptide start residue: 165)	-0.107
USO1 (peptide sequence: IVAFENAFER, peptide start residue: 203) (UniProt O60763)	-0.205
PFDN1 (peptide sequence: SVKEAEDNIREMLMAR, peptide start residue: 104) (UniProt O60925)	0.119
PDCD6 (peptide sequence: SIISMFDRENK, peptide start residue: 67) (UniProt O75340)	0.106
PFKFB2 (peptide sequence: YLNWIGVPTK, peptide start residue: 61) (UniProt O60825)	-0.153
ANKRD17 (peptide sequence: AGHVCTVQFLISK, peptide start residue: 640) (UniProt O75179)	-0.434
PRICKLE3 (peptide sequence: RPRSPPPR, peptide start residue: 499) (UniProt O43900)	-0.0899
UniProt O43156 (peptide sequence: QGHSIVVSSLK, peptide start residue: 227)	0.712
UniProt O43303 (peptide sequence: GQLTGKHCVSVIPDKPSLNK, peptide start residue: 278)	-0.205
NBN (peptide sequence: NSTSRNPSGINDDYGQLK, peptide start residue: 666) (UniProt O60934)	0.986
DNAJB6 (peptide sequence: DIYDKYGK, peptide start residue: 63) (UniProt O75190)	-0.197
CALU (peptide sequence: DWILPSDYDHAEAEAR, peptide start residue: 256) (UniProt O43852)	0.0836
WIPF1 (peptide sequence: NALLSDISK, peptide start residue: 34) (UniProt O43516)	-0.366
BNIP3L (peptide sequence: DHSSQSEEEVVEGEKEVEALKK, peptide start residue: 115) (UniProt O60238)	0.345

Target	log2 fold change
DEPDC5 (peptide sequence: TFYDAKSVDEFPEINR, peptide start residue: 224) (UniProt O75140)	-0.247
MCM3AP (peptide sequence: IPGVNKEEETESR, peptide start residue: 390) (UniProt O60318)	-0.55
EEF1E1 (peptide sequence: QHLSSVVFIK, peptide start residue: 157) (UniProt O43324)	0.0761
RAB11FIP3 (peptide sequence: ANALEEQLKEQELR, peptide start residue: 501) (UniProt O75154)	-0.269
KPNA6 (peptide sequence: VVDRFVEFLKR, peptide start residue: 125) (UniProt O60684)	-0.202
GATC (peptide sequence: LALVDFGSR, peptide start residue: 43) (UniProt O43716)	0.767
PLRG1 (peptide sequence: TAPSGSEYR, peptide start residue: 141) (UniProt O43660)	-0.156
DUSP11 (peptide sequence: YSWNVKPNASR, peptide start residue: 341) (UniProt O75319)	0.152
SH3BP5 (peptide sequence: VMEAEQTK, peptide start residue: 166) (UniProt O60239)	-0.515
MITF (peptide sequence: IQELEMQAR, peptide start residue: 392) (UniProt O75030)	-0.319
MGRN1 (peptide sequence: AASIENVLQDSSPEHCGR, peptide start residue: 513) (UniProt O60291)	-0.0796
GMFG (peptide sequence: YVHDDGR, peptide start residue: 75) (UniProt O60234)	0.186
CCNT1 (peptide sequence: HSHSQLPVGTGNKRPGDPK, peptide start residue: 528) (UniProt O60563)	-0.207
GMDS (peptide sequence: TIVWEGKNENEVGR, peptide start residue: 295) (UniProt O60547)	0.409
UniProt O75164 (peptide sequence: YIAYIESQGAHR, peptide start residue: 30)	-0.235
ZEB2 (peptide sequence: KVYQYSNSR, peptide start residue: 696) (UniProt O60315)	0.607
UniProt O43511 (peptide sequence: KTLRESLAK, peptide start residue: 44)	0.418
PQBP1 (peptide sequence: GHDKSDRDR, peptide start residue: 134) (UniProt O60828)	-0.781

Single entries from the results shown:
PQBP1 (peptide sequence: GHDKSDRDR, peptide start residue: 134) (UniProt O60828) – log2 fold change: -0.781
RAB11FIP3 (peptide sequence: ANALEEQLKEQELR, peptide start residue: 501) (UniProt O75154) – log2 fold change: -0.269
